PubChem BioAssay AID652243, Drosophila RNAi Screening Center, 2013

Screen: 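Knock-downs that decrease or increase androgen receptor reporter signal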 (primary screen)
System: Drosophila S2R+ cells
Reagent: long dsRNA against Drosophila genes
Duration: 72 h (48 h, then 24 h hormone)
Treatment: synthetic androgen R1881 at 10 nM for 24 h
Read-out: 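Per-well raw luminescence of the androgen-driven firefly reporter and of the Renilla control, two replicates each, without normalisation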
Reading the numbers: firefly reporter light: higher = more light from androgen-responsive reporter; Renilla control light: higher = more constitutive control signal (cell number, transfection)
Call rule: 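Hit when the log firefly-to-Renilla ratio dropped or increased by a fixed fold versus the mean of GFP or LacZ controls across duplicate plates; lowering cut given as 1.5 and as 3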
Calls: active = hit: reporter lowered or raised; inactive = no hit
The deposit covers about 24,000 reagents; this is an unselected part of those that have a named target and a result. Over the whole deposit, 246 (1%) are marked active. 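Plates not normalised; calls are printed but the firefly/Renilla ratio behind them is not deposited; fold cut for lowering reported inconsistently.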 The raw values are shown without normalisation. Not given: the amount of reagent.

What did the screen give for meep [DRSC07948]?
firefly reporter light, replicate 1: 1.34e5; firefly reporter light, replicate 2: 1.12e5; Renilla control light, replicate 1: 2.61e5; Renilla control light, replicate 2: 2.94e5; outcome: inactive

For meep [DRSC25511], what does the deposit list?
firefly reporter light, replicate 1: 8.59e5; firefly reporter light, replicate 2: 5.88e5; Renilla control light, replicate 1: 8.41e5; Renilla control light, replicate 2: 7.11e5; outcome: inactive

Which result is listed for CG14062 [DRSC14725]?
firefly reporter light, replicate 1: 1.78e5; firefly reporter light, replicate 2: 1.18e5; Renilla control light, replicate 1: 1.98e6; Renilla control light, replicate 2: 2.34e6; outcome: inactive

For CG14062 [DRSC27180], what was measured?
firefly reporter light, replicate 1: 2.70e5; firefly reporter light, replicate 2: 3.03e5; Renilla control light, replicate 1: 6.77e5; Renilla control light, replicate 2: 7.35e5; outcome: inactive

With CG8372 [DRSC03086], what was measured?
firefly reporter light, replicate 1: 8.72e5; firefly reporter light, replicate 2: 1.00e6; Renilla control light, replicate 1: 2.09e6; Renilla control light, replicate 2: 1.57e6; outcome: inactive

With fbp [DRSC02077], what does the deposit list?
firefly reporter light, replicate 1: 8.01e5; firefly reporter light, replicate 2: 8.07e5; Renilla control light, replicate 1: 2.36e6; Renilla control light, replicate 2: 2.64e6; outcome: inactive

Which result is listed for fbp [DRSC39301]?
outcome: inactive

With CG11951 [DRSC14442], what was measured?
firefly reporter light, replicate 1: 2.33e5; firefly reporter light, replicate 2: 1.97e5; Renilla control light, replicate 1: 2.43e6; Renilla control light, replicate 2: 2.99e6; outcome: inactive

For CG11951 [DRSC25645], what does the deposit list?
firefly reporter light, replicate 1: 9.74e5; firefly reporter light, replicate 2: 1.07e6; Renilla control light, replicate 1: 9.34e5; Renilla control light, replicate 2: 1.01e6; outcome: inactive

For CG14406 [DRSC19592], what does the deposit list?
firefly reporter light, replicate 1: 1.89e5; firefly reporter light, replicate 2: 1.39e5; Renilla control light, replicate 1: 1.48e6; Renilla control light, replicate 2: 1.25e6; outcome: inactive

For ND-B12 [DRSC04060], what does the deposit list?
firefly reporter light, replicate 1: 1.55e5; firefly reporter light, replicate 2: 1.22e5; Renilla control light, replicate 1: 1.19e6; Renilla control light, replicate 2: 1.02e6; outcome: inactive

For CG18662 [DRSC02691], how do the results read?
firefly reporter light, replicate 1: 2.44e5; firefly reporter light, replicate 2: 2.61e5; Renilla control light, replicate 1: 1.44e6; Renilla control light, replicate 2: 1.42e6; outcome: inactive

What did the screen give for Jon25Bi [DRSC03434]?
firefly reporter light, replicate 1: 1.10e5; firefly reporter light, replicate 2: 1.25e5; Renilla control light, replicate 1: 1.64e6; Renilla control light, replicate 2: 1.12e6; outcome: inactive

What did the screen give for Jon25Bi [DRSC25181]?
firefly reporter light, replicate 1: 6.86e5; firefly reporter light, replicate 2: 6.33e5; Renilla control light, replicate 1: 4.47e5; Renilla control light, replicate 2: 5.26e5; outcome: inactive

Part of the list above, reduced to “firefly reporter light, replicate 2”.
CG11951 [DRSC14442] = 1.97e5
CG11951 [DRSC25645] = 1.07e6
